Experimental data from paper PMC9743537.
Results are given in words; binding and its absence hold for the method and conditions named. Binding seen in cells or lysates may run through a third protein. Binding calls can cover weak binding; strength is not graded here.

Biological target: TLR4 protein (endogenous, HK-2 cells) (human (endogenous in HK-2))
Test: co-IP; HK-2 cell lysate (500 ug total protein), antibody overnight at 4 C, protein A/G beads, washed 5x with lysis buffer, Western blot; results and legend: IP with anti-TLR4 antibody, blot for mindin and TLR4 (methods describe IP with anti-mindin antibody, blot for TLR4)

B1: mindin protein (endogenous, HK-2 cells) (protein, UniProt Q9BUD6 27-331)
chain: QPLGGESICSARALAKYSITFTGKWSQTAFPKQYPLFRPPAQWSSLLGAAHSSDYSMWRKNQYVSNGLRDFAERGEAWALMKEIEAAGEALQSVHAVFSAPAVPSGTGQTSAELEVQRRHSLVSFVVRIVPSPDWFVGVDSLDLCDGDRWREQAALDLYPYDAGTDSGFTFSSPNFATIPQDTVTEITSSSPSHPANSFYYPRLKALPPIARVTLVRLRQSPRAFIPPAPVLPSRDNEIVDSASVPETPLDCEVSLWSSWGLCGGHCGRLGTKSRTRYVRVQPANNGSPCPELEEEAECVPDNCV
  binding: binds
